Data from article PMC9639322.
Results are given in words; binding and its absence hold for the method and conditions named. In cells and extracts the contact can be indirect. Some results given as binding are weak or reduced against the parent protein; the word gives no strength.

Amino acid sequences for entries named in this document (tags omitted). Residues count along the entry.
UniProt P35916, residues 25-1363: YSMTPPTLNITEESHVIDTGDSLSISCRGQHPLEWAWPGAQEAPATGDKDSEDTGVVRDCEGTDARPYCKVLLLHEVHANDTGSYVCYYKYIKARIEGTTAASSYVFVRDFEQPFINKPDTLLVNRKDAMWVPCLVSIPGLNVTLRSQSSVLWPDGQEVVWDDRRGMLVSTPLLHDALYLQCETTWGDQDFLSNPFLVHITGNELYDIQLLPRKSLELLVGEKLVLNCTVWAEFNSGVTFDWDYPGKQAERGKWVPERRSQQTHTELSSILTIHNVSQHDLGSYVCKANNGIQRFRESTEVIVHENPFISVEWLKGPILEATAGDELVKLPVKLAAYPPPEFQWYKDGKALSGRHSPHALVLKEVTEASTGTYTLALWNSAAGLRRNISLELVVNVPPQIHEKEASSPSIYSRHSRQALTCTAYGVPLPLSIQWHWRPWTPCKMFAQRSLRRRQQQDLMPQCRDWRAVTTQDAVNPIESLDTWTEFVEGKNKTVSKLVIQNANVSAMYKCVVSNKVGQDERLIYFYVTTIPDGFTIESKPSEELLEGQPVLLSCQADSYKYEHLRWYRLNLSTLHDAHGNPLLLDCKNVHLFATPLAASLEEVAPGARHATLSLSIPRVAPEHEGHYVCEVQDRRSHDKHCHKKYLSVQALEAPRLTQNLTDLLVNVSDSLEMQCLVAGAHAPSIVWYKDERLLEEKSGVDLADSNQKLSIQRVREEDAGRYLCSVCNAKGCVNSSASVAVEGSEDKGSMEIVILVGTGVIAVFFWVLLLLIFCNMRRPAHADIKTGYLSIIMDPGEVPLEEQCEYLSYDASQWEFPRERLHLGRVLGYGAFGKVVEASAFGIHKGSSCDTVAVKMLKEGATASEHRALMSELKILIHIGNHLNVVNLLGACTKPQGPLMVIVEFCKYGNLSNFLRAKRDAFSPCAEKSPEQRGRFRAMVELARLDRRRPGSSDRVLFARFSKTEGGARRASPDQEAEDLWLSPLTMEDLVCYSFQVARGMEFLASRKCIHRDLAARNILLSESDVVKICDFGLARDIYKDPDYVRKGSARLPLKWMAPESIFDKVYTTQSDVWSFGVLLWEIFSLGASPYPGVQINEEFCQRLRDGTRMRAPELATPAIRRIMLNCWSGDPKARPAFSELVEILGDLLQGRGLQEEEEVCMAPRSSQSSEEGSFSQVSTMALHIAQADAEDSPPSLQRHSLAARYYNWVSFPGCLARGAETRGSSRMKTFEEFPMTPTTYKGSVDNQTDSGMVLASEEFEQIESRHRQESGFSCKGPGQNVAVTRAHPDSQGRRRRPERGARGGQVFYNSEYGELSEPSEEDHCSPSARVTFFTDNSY

Columns and labels:
[1] = molecular target: T1, Dual-specificity phosphatase 19 (human (endogenous in QGP-1)) (UniProt Q8WTR2); test: co-IP; endogenous proteins in QGP-1 cell lysate (1000 μg cellular protein); anti-VEGFR3 or anti-DUSP19 antibody or mouse IgG overnight at 4 °C; Western blot for VEGFR3 and DUSP19; cells with shLuc, shDUSP19 or shVEGFR3
T1 sequence: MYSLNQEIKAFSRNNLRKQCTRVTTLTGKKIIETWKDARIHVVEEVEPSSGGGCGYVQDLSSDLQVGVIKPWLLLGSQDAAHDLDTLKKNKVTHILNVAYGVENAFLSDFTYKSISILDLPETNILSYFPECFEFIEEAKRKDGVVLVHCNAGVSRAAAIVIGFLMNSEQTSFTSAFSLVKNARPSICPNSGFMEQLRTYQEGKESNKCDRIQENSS

[2] = molecular target: Vascular endothelial growth factor receptor 3 (human (endogenous in QGP-1)) (UniProt P35916); test: as above

Molecule: Vascular endothelial growth factor receptor 3 (from UniProt P35916 25-1363)
- binding [1]: binds

B1: Dual-specificity phosphatase 19 (enzyme, UniProt Q8WTR2 1-217)
chain: MYSLNQEIKAFSRNNLRKQCTRVTTLTGKKIIETWKDARIHVVEEVEPSSGGGCGYVQDLSSDLQVGVIKPWLLLGSQDAAHDLDTLKKNKVTHILNVAYGVENAFLSDFTYKSISILDLPETNILSYFPECFEFIEEAKRKDGVVLVHCNAGVSRAAAIVIGFLMNSEQTSFTSAFSLVKNARPSICPNSGFMEQLRTYQEGKESNKCDRIQENSS
- binding [2]: binds
